Results are given in words; binding and its absence hold for the method and conditions named. Binding can be weak; no strength is given.
Target: LAX PANICLE 2 (rice (Oryza sativa)) (UniProt G3XKQ9)
Test: two-hybrid; OsSPL7 as prey in pGAD-T7, LAX1 or LAX2 as bait in pGBK-T7; yeast on SD-LT and SD-LTAH media (Clontech system)

Amino acid sequences for entries named in this document (tags omitted). A change or cut given only in a name is not applied to a line headed by its entry.
UniProt G3XKQ9: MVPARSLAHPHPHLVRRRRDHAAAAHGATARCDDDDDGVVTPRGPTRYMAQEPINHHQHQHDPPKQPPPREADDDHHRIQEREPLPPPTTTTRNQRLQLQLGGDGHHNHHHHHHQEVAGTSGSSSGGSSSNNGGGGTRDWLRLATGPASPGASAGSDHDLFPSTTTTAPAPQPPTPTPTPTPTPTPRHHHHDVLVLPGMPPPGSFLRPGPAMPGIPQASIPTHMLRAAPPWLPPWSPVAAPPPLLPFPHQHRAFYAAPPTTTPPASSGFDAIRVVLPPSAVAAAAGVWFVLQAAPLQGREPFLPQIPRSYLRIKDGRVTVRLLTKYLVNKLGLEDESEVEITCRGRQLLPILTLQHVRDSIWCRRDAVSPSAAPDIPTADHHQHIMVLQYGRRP

binding: binds
B1: OsSPL7 (protein, UniProt Q7XT42 1-360)
chain: MEGNGCGGSGATPRGVVGMHWAPVVTSPPSPQPPFLPPAPCRPDVQMQQQGGLTCLKLGKRPCFWGGDGAGQVAQGSGGGGGGGGGGSADQGKRKEKAATAVPVVPRCQVEGCDITLQGVKEYHRRHKVCEVHAKAPRVVVHGTEQRFCQQCSRFHVLAEFDDAKKSCRRRLAGHNERRRRSNASEAMARGSAHPHGMPVLGHGFPPYGLPTSSAGALSLLSSARATGPWLMPTPDISARSSAALDELIAENRAALLSWQFFSDRQPPPAGRPTGRSPGSETAGGWHAHLQARPPPPGAGGQHENQSGHVTLDLMQATTAAGGSGAPFRPVPARPPKEGGDAGCTSDAWTPSPMEGARVV

— article PMC6542935
